The supplement of paper PMC4604168 (melanoma cell lines)
This is one part of the list. Single values are uncertain, as repeats are few or missing.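 The apoptosis fraction was the count of cleaved-PARP antibody-stained nuclei relative to all DNA-stained nuclei, imaged in 1,536-well plates. Screening doses were set so most cells survived, and baseline and induced cleaved-PARP levels vary greatly across cell lines.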

Legend:
Test in all cases: cleaved PARP positive nuclei fraction relative to DMSO control; melanoma cells; higher = more apoptosis
Conditions in all cases: library dose: low library concentration; 72 h
501Mel = tested on: 501Mel
A101D = tested on: A101D
A2058 = tested on: A2058
C32 = tested on: C32
CBRC008 = tested on: CBRC008 (line from a melanoma biopsy)
CBRC014 = tested on: CBRC014 (line from a melanoma biopsy)
CBRC016 = tested on: CBRC016 (line from a melanoma biopsy)
CBRC017 = tested on: CBRC017 (line from a melanoma biopsy)
COLO792 = tested on: COLO792
COLO800 = tested on: COLO800
COLO829 = tested on: COLO829
G361 = tested on: G361
IPC-298 = tested on: IPC-298
IST-MEL1 = tested on: IST-MEL1
LB2518-MEL = tested on: LB2518-MEL
LOXIMVI = tested on: LOXIMVI

SMILES | cleaved PARP positive nuclei fraction (501Mel) [%] | cleaved PARP positive nuclei fraction (A101D) [%] | cleaved PARP positive nuclei fraction (A2058) [%] | cleaved PARP positive nuclei fraction (C32) [%] | cleaved PARP positive nuclei fraction (CBRC008) [%] | cleaved PARP positive nuclei fraction (CBRC014) [%] | cleaved PARP positive nuclei fraction (CBRC016) [%] | cleaved PARP positive nuclei fraction (CBRC017) [%] | cleaved PARP positive nuclei fraction (COLO792) [%] | cleaved PARP positive nuclei fraction (COLO800) [%] | cleaved PARP positive nuclei fraction (COLO829) [%] | cleaved PARP positive nuclei fraction (G361) [%] | cleaved PARP positive nuclei fraction (IPC-298) [%] | cleaved PARP positive nuclei fraction (IST-MEL1) [%] | cleaved PARP positive nuclei fraction (LB2518-MEL) [%] | cleaved PARP positive nuclei fraction (LOXIMVI) [%]
CC(C)C[C@H](NC(=O)[C@H](Cc1ccccc1)NC(=O)c1cnccn1)B(O)O [Bortezomib] + N#Cc1c(O)c2c(-c3ccc(-c4ccccc4O)cc3)csc2[nH]c1=O [A769662] (first compound 0.001 µM, partner dose 2 µM) | 91.5 | 154 | 91.1 | 92.6 | 1340 | 194 | 135 | 445 | 73.8 | 46.9 | 267 | 1110 | 98.8 | 171 | 300 | 179
O=C(O)c1ccc2c(c1)nc(Nc1cccc(Cl)c1)c1ccncc12 + COc1ccc(-c2ccc3c(N4CCOCC4)nc(N4C[C@@H](C)O[C@@H](C)C4)nc3n2)cc1CO [KU0063794] (first compound 0.4 µM, partner dose 0.02 µM) | 208 | 29.4 | 130 | 103 | 165 | 206 | 72 | 154 | 240 | 32.6 | 107 | 108 | 138 | 31.6 | 95 | 137
Cn1c(=O)n(-c2ccc(C(C)(C)C#N)cc2)c2c3cc(-c4cnc5ccccc5c4)ccc3ncc21 + COc1cc2ncnc(Nc3ccc(Oc4ccccc4)cc3)c2cc1OC [SrcI1] (first compound 0.004 µM, partner dose 2 µM) | 156 | 23 | 136 | 185 | 111 | 91.1 | 19.5 | 79 | 182 | 168 | 99.6 | 114 | 128 | 220 | 126 | 67.1
Nc1ncn([C@H]2C[C@H](O)[C@@H](CO)O2)c(=O)n1 [decitabine] + O=S(=O)(c1ccccc1)N(CC(F)(F)F)c1ccc(C(O)(C(F)(F)F)C(F)(F)F)cc1 [T0901317] (first compound 0.1 µM, partner dose 1.4 µM) | 67.6 | 54.4 | 54.4 | 75.9 | 60.7 | 101 | 125 | 111 | 77.6 | 113 | 91.3 | 78.6 | 307 | 111 | 145 | 166
Cn1c(=O)n(-c2ccc(C(C)(C)C#N)cc2)c2c3cc(-c4cnc5ccccc5c4)ccc3ncc21 + Cc1cc([N+](=O)[O-])ccc1NS(=O)(=O)c1cc(Cl)ccc1Cl [FH535] (first compound 0.004 µM, partner dose 1 µM) | 72.8 | 25.5 | 32.3 | 109 | 1060 | 128 | 161 | 276 | 32.1 | 50.1 | 56.2 | 186 | 195 | 157 | 132 | 83.1
Cc1cc(Nc2cc(N3CCN(C)CC3)nc(/C=C/c3ccccc3)n2)n[nH]1 + O=C(Nc1ccccc1)c1cc([N+](=O)[O-])ccc1Cl [GW9662] (first compound 0.04 µM, partner dose 2 µM) | 174 | 43.2 | 349 | 68.1 | 49.7 | 106 | 69.2 | 91.7 | 47.4 | 201 | 63.4 | 62.3 | 88.9 | 67 | 85.4 | 80
CNC(=O)c1cc(Oc2ccc(NC(=O)Nc3ccc(Cl)c(C(F)(F)F)c3)cc2)ccn1 [sorafenib] + Cn1cc(/C=C2\C(=O)Nc3cccnc32)c2ccccc21 [GW441756] (first compound 0.4 µM, partner dose 0.4 µM) | 147 | 13.5 | 56.2 | 83.5 | 95.9 | 95 | 76.8 | 91.8 | 98.9 | 35.9 | 50.7 | 74.8 | 64.2 | 44.7 | 42.1 | 29.7
O=C(O)c1ccc2c(c1)nc(Nc1cccc(Cl)c1)c1ccncc12 + O=C(O)C(=O)Nc1sc2c(c1C(=O)O)CCNC2 [TCS401] (first compound 0.4 µM, partner dose 1.66667 µM) | 57.7 | 18.9 | 84.5 | 132 | 99.5 | 103 | 134 | 132 | 222 | 69.3 | 149 | 134 | 98.7 | 78.2 | 28.7 | 295
O=C(O)c1ccc2c(c1)nc(Nc1cccc(Cl)c1)c1ccncc12 + O=C1NC(=O)/C(=C/c2ccc(-c3ccc(F)cc3O)o2)S1 [AS252424] (first compound 0.4 µM, partner dose 1 µM) | 69 | 18.4 | 140 | 49.7 | 278 | 121 | 990 | 141 | 140 | 29.5 | 204 | 120 | 50.1 | 340 | 79.3 | 196
CO[C@H]1C[C@@H]2CC[C@@H](C)[C@@](O)(O2)C(=O)C(=O)N2CCCC[C@H]2C(=O)O[C@H]([C@H](C)C[C@@H]2CC[C@@H](OCCO)[C@H](OC)C2)CC(=O)[C@H](C)/C=C(\C)[C@@H](O)[C@@H](OC)C(=O)[C@H](C)C[C@H](C)/C=C/C=C/C=C/1C [everolimus] + O=c1cc(-c2cccc3c2Sc2ccccc2S3)oc(N2CCOCC2)c1 [KU55933] (first compound 0.02 µM, partner dose 1 µM) | 94.1 | 8.72 | 124 | 126 | 265 | 178 | 444 | 105 | 130 | 120 | 78.7 | 236 | 175 | 46.5 | 82.1 | 459
CO[C@H]1C[C@@H]2CC[C@@H](C)[C@@](O)(O2)C(=O)C(=O)N2CCCC[C@H]2C(=O)O[C@H]([C@H](C)C[C@@H]2CC[C@@H](OCCO)[C@H](OC)C2)CC(=O)[C@H](C)/C=C(\C)[C@@H](O)[C@@H](OC)C(=O)[C@H](C)C[C@H](C)/C=C/C=C/C=C/1C [everolimus] + O=S(=O)(c1ccccc1)N(CC(F)(F)F)c1ccc(C(O)(C(F)(F)F)C(F)(F)F)cc1 [T0901317] (first compound 0.02 µM, partner dose 1.4 µM) | 284 | 33.5 | 83.1 | 71.5 | 226 | 93.9 | 88.8 | 110 | 67.9 | 95.7 | 217 | 151 | 136 | 112 | 87.5 | 108
O=C(O)c1ccc2c(c1)nc(Nc1cccc(Cl)c1)c1ccncc12 + CCc1ccc(CCOc2ccc(CC3SC(=O)NC3=O)cc2)nc1 [pioglitazone] (first compound 0.4 µM, partner dose 2 µM) | 112 | 8.49 | 55.7 | 141 | 75.2 | 164 | 199 | 258 | 191 | 196 | 178 | 89 | 44.8 | 96.6 | 62.4 | 135
Nc1ncn([C@H]2C[C@H](O)[C@@H](CO)O2)c(=O)n1 [decitabine] + O=C(Nc1ccccc1)c1cc([N+](=O)[O-])ccc1Cl [GW9662] (first compound 0.1 µM, partner dose 2 µM) | 177 | 55.3 | 283 | 81.6 | 166 | 1100 | 109 | 119 | 146 | 51.7 | 216 | 143 | 182 | 94.4 | 143 | 41.7
CC(C)C[C@H](NC(=O)[C@H](Cc1ccccc1)NC(=O)c1cnccn1)B(O)O [Bortezomib] + CCc1ccc(CCOc2ccc(CC3SC(=O)NC3=O)cc2)nc1 [pioglitazone] (first compound 0.001 µM, partner dose 2 µM) | 105 | 78.5 | 111 | 145 | 1010 | 594 | 219 | 180 | 101 | 44.8 | 211 | 1990 | 134 | 223 | 254 | 134
C[C@@H](Oc1cc(-c2cnn(C3CCNCC3)c2)cnc1N)c1c(Cl)ccc(F)c1Cl [Crizotinib] + Oc1cc(-c2nc(-c3ccccc3)[nH]c2-c2ccncc2)ccc1Cl [L779450] (first compound 0.2 µM, partner dose 0.2 µM) | 87 | 6.41 | 151 | 217 | 99.8 | 103 | 84.6 | 85 | 183 | 72.8 | 119 | 157 | 81.6 | 111 | 79.7 | 62
O=C(O)[C@@H]1[O][Sb](=[O])([O][Sb]2(=[O])[O][C@H]([C@H](O)CO)[C@H](O)[C@H](C(=O)O)[O]2)[O][C@H]([C@H](O)CO)[C@@H]1O (stereo partly drawn) [stibogluconate] + Cn1cc(/C=C2\C(=O)Nc3cccnc32)c2ccccc21 [GW441756] (first compound 2 µM, partner dose 0.4 µM) | 31.6 | 8.74 | 108 | 69.1 | 62.3 | 103 | 39.9 | 75.9 | 118 | 43.5 | 79.8 | 81.9 | 60.3 | 68.8 | 62.3 | 200
CO[C@H]1C[C@@H]2CC[C@@H](C)[C@@](O)(O2)C(=O)C(=O)N2CCCC[C@H]2C(=O)O[C@H]([C@H](C)C[C@@H]2CC[C@@H](OCCO)[C@H](OC)C2)CC(=O)[C@H](C)/C=C(\C)[C@@H](O)[C@@H](OC)C(=O)[C@H](C)C[C@H](C)/C=C/C=C/C=C/1C [everolimus] + COc1cc(N2CCC(N3CCN(C)CC3)CC2)ccc1Nc1ncc(Cl)c(Nc2ccccc2S(=O)(=O)C(C)C)n1 [NVP-TAE684] (first compound 0.02 µM, partner dose 0.08 µM) | 148 | 32.2 | 212 | 221 | 174 | 110 | 18.4 | 98.3 | 230 | 248 | 52.3 | 159 | 121 | 203 | 101 | 140
CO[C@H]1C[C@@H]2CC[C@@H](C)[C@@](O)(O2)C(=O)C(=O)N2CCCC[C@H]2C(=O)O[C@H]([C@H](C)C[C@@H]2CC[C@@H](OCCO)[C@H](OC)C2)CC(=O)[C@H](C)/C=C(\C)[C@@H](O)[C@@H](OC)C(=O)[C@H](C)C[C@H](C)/C=C/C=C/C=C/1C [everolimus] + Cn1cc(/C=C2\C(=O)Nc3cccnc32)c2ccccc21 [GW441756] (first compound 0.02 µM, partner dose 0.4 µM) | 108 | 71.7 | 224 | 42.9 | 279 | 113 | 48 | 122 | 165 | 79.4 | 117 | 215 | 571 | 89.8 | 169 | 86

Single records, from the list above. Order of values: cleaved PARP positive nuclei fraction (501Mel) [%]	cleaved PARP positive nuclei fraction (A101D) [%]	cleaved PARP positive nuclei fraction (A2058) [%]	cleaved PARP positive nuclei fraction (C32) [%]	cleaved PARP positive nuclei fraction (CBRC008) [%]	cleaved PARP positive nuclei fraction (CBRC014) [%]	cleaved PARP positive nuclei fraction (CBRC016) [%]	cleaved PARP positive nuclei fraction (CBRC017) [%]	cleaved PARP positive nuclei fraction (COLO792) [%]	cleaved PARP positive nuclei fraction (COLO800) [%]	cleaved PARP positive nuclei fraction (COLO829) [%]	cleaved PARP positive nuclei fraction (G361) [%]	cleaved PARP positive nuclei fraction (IPC-298) [%]	cleaved PARP positive nuclei fraction (IST-MEL1) [%]	cleaved PARP positive nuclei fraction (LB2518-MEL) [%]	cleaved PARP positive nuclei fraction (LOXIMVI) [%]
Cn1c(=O)n(-c2ccc(C(C)(C)C#N)cc2)c2c3cc(-c4cnc5ccccc5c4)ccc3ncc21 + COc1cc2ncnc(Nc3ccc(Oc4ccccc4)cc3)c2cc1OC [SrcI1] (first compound 0.004 µM, partner dose 2 µM) is listed as 156	23	136	185	111	91.1	19.5	79	182	168	99.6	114	128	220	126	67.1
Cc1cc(Nc2cc(N3CCN(C)CC3)nc(/C=C/c3ccccc3)n2)n[nH]1 + O=C(Nc1ccccc1)c1cc([N+](=O)[O-])ccc1Cl [GW9662] (first compound 0.04 µM, partner dose 2 µM) is listed as 174	43.2	349	68.1	49.7	106	69.2	91.7	47.4	201	63.4	62.3	88.9	67	85.4	80
